Laboratory results reported in PubChem BioAssay (NCATS).
This is one part of the list. Shown are side measurements of this screen, not its main read-out; they come without a call. The list favours compounds with an active or inconclusive main result. Potencies come from curve fits of mixed quality, noted in brackets.

test: qHTS Assay for Inhibitors of PDE-IV (AID 607); details: HEK293 ACTOne CNG channel cells, membrane potential fluorescence; measured here: parental cell counter-screen
Outline: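 Cell-based read-out of cAMP via a modified cyclic nucleotide-gated channel and membrane potential dye (535/590 nm) in HEK293 cells expressing PDE4 endogenously. Compounds tested up to 22.9 uM final; 100 uM RO 20-1724 reference.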

| Structure (SMILES) | AC50 |
| --- | --- |
| CCCC[C@H]1C[C@@H]1[C@@H]1N(C(C)=O)[C@H](c2cccc(OC)c2)CC12CC2 | 10 µM [rising, single point] |
| CCCCCCC/C=C\CCCCCCCCC(=O)O | 0.00126 µM [falling, full curve, poor fit] |
| COC(=O)[C@@]1(Cc2ccc(F)cc2)[C@H]2c3cc(C(=O)N(C)C)n(Cc4ccc(OC)c(OC)c4)c3C[C@H]2CN1C(=O)c1ccccc1 | 7.94 µM [rising, partial curve] |
| COC(=O)[C@H]1C[C@@H]1[C@H](NC(=O)c1ccccc1)c1ccccc1 | 0.631 µM [rising, single point] |
| COC(=O)[C@@]1(Cc2ccc(OC)cc2)[C@H]2c3cc(C(=O)N4CCCC4)n(CCn4cc([N+](=O)[O-])nc4C)c3C[C@H]2CN1C(=O)c1ccccc1 | 0.0126 µM [falling, full curve, poor fit] |
| Cc1ccccc1N=C(N)Nc1ccccc1C | 15.8 µM [rising, partial curve] |
| COc1ccccc1CN1CC2(CCN(C(=O)c3cc(C(F)(F)F)cc(C(F)(F)F)c3)CC2)C1 | 10 µM [rising, single point] |
| COc1ccc(CNc2ncnc3ccc(-c4ccccc4CN(C)C)cc23)c(OC)c1 | 7.94 µM [rising, partial curve] |
| CCC[C@@H]1C[C@@]1(CCC)C(NC(=O)c1ccco1)c1ccc(Cl)cc1 (stereo not given in full) | 12.6 µM [rising, single point] |
| Cc1cccc(CNc2nc(-c3cccc(NS(C)(=O)=O)c3)nc3ccccc23)c1 | 12.6 µM [rising, single point] |

Two of these compounds in a different format.
Structure (SMILES) | AC50
COC(=O)[C@H]1C[C@@H]1[C@H](NC(=O)c1ccccc1)c1ccccc1 | 0.631 µM [rising, single point]
COC(=O)[C@@]1(Cc2ccc(OC)cc2)[C@H]2c3cc(C(=O)N4CCCC4)n(CCn4cc([N+](=O)[O-])nc4C)c3C[C@H]2CN1C(=O)c1ccccc1 | 0.0126 µM [falling, full curve, poor fit]
